# Results taken from the supplement of paper PMC8728848.
# The list shows a part of the results.
# B1: CBP21 (Serratia marcescens), O83009 (protein)
# chain: MNKTSRTLLSLGLLSAAMFGVSQQANAHGYVESPASRAYQCKLQLNTQCGSVQAEPQSVEGLKGFPQAGPADGHIASADKSTFFELDQQTPTRWNKLNLKTGPNSFTWKLTARHSTTSWRYFITKPNWDASQPLTRASFDLTPFCQFNDGGAIPAAQVTHQCNIPADRSGSHVILAVWDIADTANAFYQAIDVNLSK
# Tests used:
# Experiment in all cases: glycan array binding signal (z-score within array); higher = stronger binding
# Conditions in all cases: glycan notation: IUPAC condensed, linker removed; mutation: Y54A
# [1] = target: Gal(b1-4)GlcNAc(b1-2)[Gal(b1-4)GlcNAc(b1-6)]Man(a1-6)[Gal(b1-4)GlcNAc(b1-2)Man(a1-3)]Man(b1-4)GlcNAc(b1-4)[Fuc(a1-6)]GlcNAc
# In short: (§1)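 The Consortium for Functional Glycomics database supplied 3228 glycan arrays, of which those lacking an available protein sequence were dropped. The binding signal, a within-array Z-score, was averaged across arrays of the same protein sequence and across linkers. Negative scores can be read as non-binding.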
# [2] = target: Gal(b1-4)GlcNAc(b1-2)[Gal(b1-4)GlcNAc(b1-6)]Man(a1-6)[GlcNAc(b1-4)][Gal(b1-4)GlcNAc(b1-2)Man(a1-3)]Man(b1-4)GlcNAc(b1-4)GlcNAc
# In short: as §1
# [3] = target: Gal(b1-4)GlcNAc(b1-2)[Gal(b1-4)GlcNAc(b1-6)]Man(a1-6)[GlcNAc(b1-4)][Gal(b1-4)GlcNAc(b1-2)[Gal(b1-4)GlcNAc(b1-4)]Man(a1-3)]Man(b1-4)GlcNAc(b1-4)[Fuc(a1-6)]GlcNAc
# In short: as §1
# [4] = target: Gal(b1-4)GlcNAc(b1-3)Gal(b1-3)GalNAc
# In short: as §1
# [5] = target: Gal(b1-4)GlcNAc(b1-3)Gal(b1-3)GlcNAc
# In short: as §1
# [6] = target: Gal(b1-4)GlcNAc(b1-3)Gal(b1-4)Glc
# In short: as §1
# [7] = target: Gal(b1-4)GlcNAc(b1-3)Gal(b1-4)GlcNAc
# In short: as §1
# [8] = target: Gal(b1-4)GlcNAc(b1-3)Gal(b1-4)GlcNAc(b1-2)Man(a1-3)[Gal(b1-4)GlcNAc(b1-3)Gal(b1-4)GlcNAc(b1-2)Man(a1-6)]Man(b1-4)GlcNAc(b1-4)GlcNAc
# In short: as §1
# [9] = target: Gal(b1-4)GlcNAc(b1-3)Gal(b1-4)GlcNAc(b1-2)Man(a1-3)[Gal(b1-4)GlcNAc(b1-3)Gal(b1-4)GlcNAc(b1-2)Man(a1-6)]Man(b1-4)GlcNAc(b1-4)[Fuc(a1-6)]GlcNAc
# In short: as §1
# [10] = target: Gal(b1-4)GlcNAc(b1-3)Gal(b1-4)GlcNAc(b1-2)[Gal(b1-4)GlcNAc(b1-3)Gal(b1-4)GlcNAc(b1-6)]Man(a1-6)[Gal(b1-4)GlcNAc(b1-3)Gal(b1-4)GlcNAc(b1-2)Man(a1-3)]Man(b1-4)GlcNAc(b1-4)GlcNAc
# In short: as §1
# [11] = target: Gal(b1-4)GlcNAc(b1-3)Gal(b1-4)GlcNAc(b1-2)[Gal(b1-4)GlcNAc(b1-3)Gal(b1-4)GlcNAc(b1-6)]Man(a1-6)[Gal(b1-4)GlcNAc(b1-3)Gal(b1-4)GlcNAc(b1-2)Man(a1-3)]Man(b1-4)GlcNAc(b1-4)[Fuc(a1-6)]GlcNAc
# In short: as §1
# [12] = target: Gal(b1-4)GlcNAc(b1-3)Gal(b1-4)GlcNAc(b1-3)Gal(b1-4)GlcNAc
# In short: as §1
# [13] = target: Gal(b1-4)GlcNAc(b1-3)Gal(b1-4)GlcNAc(b1-3)Gal(b1-4)GlcNAc(b1-2)Man(a1-3)[Gal(b1-4)GlcNAc(b1-3)Gal(b1-4)GlcNAc(b1-3)Gal(b1-4)GlcNAc(b1-2)Man(a1-6)]Man(b1-4)GlcNAc(b1-4)GlcNAc
# In short: as §1
# [14] = target: Gal(b1-4)GlcNAc(b1-3)Gal(b1-4)GlcNAc(b1-3)Gal(b1-4)GlcNAc(b1-2)Man(a1-3)[Gal(b1-4)GlcNAc(b1-3)Gal(b1-4)GlcNAc(b1-3)Gal(b1-4)GlcNAc(b1-2)Man(a1-6)]Man(b1-4)GlcNAc(b1-4)[Fuc(a1-6)]GlcNAc
# In short: as §1
# [15] = target: Gal(b1-4)GlcNAc(b1-3)Gal(b1-4)GlcNAc(b1-3)Gal(b1-4)GlcNAc(b1-2)[Gal(b1-4)GlcNAc(b1-3)Gal(b1-4)GlcNAc(b1-3)Gal(b1-4)GlcNAc(b1-6)]Man(a1-6)[Gal(b1-4)GlcNAc(b1-3)Gal(b1-4)GlcNAc(b1-3)Gal(b1-4)GlcNAc(b1-2)Man(a1-3)]Man(b1-4)GlcNAc(b1-4)[Fuc(a1-6)]GlcNAc
# In short: as §1
# [16] = target: Gal(b1-4)GlcNAc(b1-3)Gal(b1-4)GlcNAc(b1-3)Gal(b1-4)GlcNAc(b1-3)Gal(b1-4)GlcNAc(b1-2)Man(a1-3)[Gal(b1-4)GlcNAc(b1-3)Gal(b1-4)GlcNAc(b1-3)Gal(b1-4)GlcNAc(b1-3)Gal(b1-4)GlcNAc(b1-2)Man(a1-6)]Man(b1-4)GlcNAc(b1-4)GlcNAc
# In short: as §1
# [17] = target: Gal(b1-4)GlcNAc(b1-3)Gal(b1-4)GlcNAc(b1-3)Gal(b1-4)GlcNAc(b1-3)Gal(b1-4)GlcNAc(b1-2)Man(a1-3)[Gal(b1-4)GlcNAc(b1-3)Gal(b1-4)GlcNAc(b1-3)Gal(b1-4)GlcNAc(b1-3)Gal(b1-4)GlcNAc(b1-2)Man(a1-6)]Man(b1-4)GlcNAc(b1-4)[Fuc(a1-6)]GlcNAc
# In short: as §1
# [18] = target: Gal(b1-4)GlcNAc(b1-3)Gal(b1-4)GlcNAc(b1-3)Gal(b1-4)GlcNAc(b1-3)Gal(b1-4)GlcNAc(b1-2)[Gal(b1-4)GlcNAc(b1-3)Gal(b1-4)GlcNAc(b1-3)Gal(b1-4)GlcNAc(b1-3)Gal(b1-4)GlcNAc(b1-6)]Man(a1-6)[Gal(b1-4)GlcNAc(b1-3)Gal(b1-4)GlcNAc(b1-3)Gal(b1-4)GlcNAc(b1-3)Gal(b1-4)GlcNAc(b1-2)Man(a1-3)]Man(b1-4)GlcNAc(b1-4)[Fuc(a1-6)]GlcNAc
# In short: as §1
# [19] = target: Gal(b1-4)GlcNAc(b1-3)Gal(b1-4)GlcNAc(b1-3)Gal(b1-4)GlcNAc(b1-3)Gal(b1-4)GlcNAc(b1-3)Gal(b1-4)GlcNAc(b1-2)Man(a1-3)[Gal(b1-4)GlcNAc(b1-3)Gal(b1-4)GlcNAc(b1-3)Gal(b1-4)GlcNAc(b1-3)Gal(b1-4)GlcNAc(b1-3)Gal(b1-4)GlcNAc(b1-2)Man(a1-6)]Man(b1-4)GlcNAc(b1-4)GlcNAc
# In short: as §1
# [20] = target: Gal(b1-4)GlcNAc(b1-3)Gal(b1-4)GlcNAc(b1-3)Gal(b1-4)GlcNAc(b1-3)Gal(b1-4)GlcNAc(b1-3)Gal(b1-4)GlcNAc(b1-2)Man(a1-3)[Gal(b1-4)GlcNAc(b1-3)Gal(b1-4)GlcNAc(b1-3)Gal(b1-4)GlcNAc(b1-3)Gal(b1-4)GlcNAc(b1-3)Gal(b1-4)GlcNAc(b1-2)Man(a1-6)]Man(b1-4)GlcNAc(b1-4)[Fuc(a1-6)]GlcNAc
# In short: as §1
# [21] = target: Gal(b1-4)GlcNAc(b1-3)Gal(b1-4)GlcNAc(b1-3)Gal(b1-4)GlcNAc(b1-3)Gal(b1-4)GlcNAc(b1-3)Gal(b1-4)GlcNAc(b1-2)[Gal(b1-4)GlcNAc(b1-3)Gal(b1-4)GlcNAc(b1-3)Gal(b1-4)GlcNAc(b1-3)Gal(b1-4)GlcNAc(b1-3)Gal(b1-4)GlcNAc(b1-6)]Man(a1-6)[Gal(b1-4)GlcNAc(b1-3)Gal(b1-4)GlcNAc(b1-3)Gal(b1-4)GlcNAc(b1-3)Gal(b1-4)GlcNAc(b1-3)Gal(b1-4)GlcNAc(b1-2)Man(a1-3)]Man(b1-4)GlcNAc(b1-4)[Fuc(a1-6)]GlcNAc
# In short: as §1
# [22] = target: Gal(b1-4)GlcNAc(b1-3)Gal(b1-4)GlcNAc(b1-3)Gal(b1-4)GlcNAc(b1-3)Gal(b1-4)GlcNAc(b1-3)Gal(b1-4)GlcNAc(b1-3)Gal(b1-4)GlcNAc(b1-2)Man(a1-3)[Gal(b1-4)GlcNAc(b1-3)Gal(b1-4)GlcNAc(b1-3)Gal(b1-4)GlcNAc(b1-3)Gal(b1-4)GlcNAc(b1-3)Gal(b1-4)GlcNAc(b1-3)Gal(b1-4)GlcNAc(b1-2)Man(a1-6)]Man(b1-4)GlcNAc(b1-4)GlcNAc
# In short: as §1
# [23] = target: Gal(b1-4)GlcNAc(b1-3)Gal(b1-4)GlcNAc(b1-3)GalNAc
# In short: as §1
binder,measurement,setting,value
B1,glycan array binding signal (z-score),[1],-0.513
same,glycan array binding signal (z-score),[2],-0.473
same,glycan array binding signal (z-score),[3],-0.57
same,glycan array binding signal (z-score),[4],-0.731
same,glycan array binding signal (z-score),[5],-0.325
same,glycan array binding signal (z-score),[6],0.422
same,glycan array binding signal (z-score),[7],-0.635
same,glycan array binding signal (z-score),[8],0.308
same,glycan array binding signal (z-score),[9],-0.38
same,glycan array binding signal (z-score),[10],-0.082
same,glycan array binding signal (z-score),[11],1.02
same,glycan array binding signal (z-score),[12],-0.11
same,glycan array binding signal (z-score),[13],0.396
same,glycan array binding signal (z-score),[14],-0.892
same,glycan array binding signal (z-score),[15],0.063
same,glycan array binding signal (z-score),[16],0.181
same,glycan array binding signal (z-score),[17],-0.337
same,glycan array binding signal (z-score),[18],1
same,glycan array binding signal (z-score),[19],-0.068
same,glycan array binding signal (z-score),[20],5.09
same,glycan array binding signal (z-score),[21],1.3
same,glycan array binding signal (z-score),[22],-0.154
same,glycan array binding signal (z-score),[23],0.033

# Some of the entries so far, as tab-separated lines:
binder	measurement	setting	value
B1	glycan array binding signal (z-score)	[18]	1
same	glycan array binding signal (z-score)	[19]	-0.068
same	glycan array binding signal (z-score)	[20]	5.09
same	glycan array binding signal (z-score)	[21]	1.3
same	glycan array binding signal (z-score)	[22]	-0.154
